Laboratory results as given in PubChem BioAssay AID2685 (National Center for Advancing Translational Sciences (NCATS), 2010).
Some of the results follow. These are further read-outs of the screen, such as a control signal, another cell line or another target. No call is given for them. Compounds called inactive in the main read-out are mostly missing here. The note in brackets gives the kind of curve behind each potency; many fits are weak.

Experiment: qHTS Assay for Lipid Storage Modulators in Drosophila S3 Cells;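 for cell number change: cells counted by Cell Tracker Red CMTPX staining in the red channel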
Settings: BODIPY lipid droplet fluorescence, 18-24 h; for cell number change: measured here: cell count max response, cells fed with added oleic acid
How it was run: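 Drosophila S3 cells loaded with oleic acid (400 uM, as added) and compounds at several concentrations; lipid droplets imaged by 488-nm laser-scanning cytometry, 500–530 nm intensity and object ratio to cell channel. Percent activity normalized to 20 uM Triacsin C.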

[1] = measured here: lipid fluorescence (Fed channel) AC50, cells fed with added oleic acid
[2] = measured here: cell number channel AC50, cells fed with added oleic acid

Row | SMILES | cell number change | AC50 [1] | AC50 [2]
1 | COc1ccc(N2CC(C)(C)C2=O)cc1 | 10.2% | – | –
2 | CCc1cc(-c2n[nH]c(=S)n2C(C)c2ccccc2)cs1 (centres undefined) | 14.4% | 6.51 µM [falling, single point] | –
3 | Cn1c(SCC(=O)NNC(=O)c2ccccc2O)nnc1-c1ccccc1 | 58.3% | 6.51 µM [rising, single point] | 18.4 µM [rising, single point]
4 | COc1ccc(C(=O)C(CN2CCCC2)c2ccccc2)cc1 (centres undefined) | -39.3% | 18.4 µM [falling, single point] | 25.9 µM [falling, single point]
5 | COCCN(Cc1ccccc1)C(=O)c1cccc(S(=O)(=O)N(C)c2c(C)n(C)n(-c3ccccc3)c2=O)c1 | – | 0.103 µM [rising, full curve, poor fit] | 0.0206 µM [falling, full curve, poor fit]
6 | COc1ccc(CNC(=O)c2ccc(CN3CCOCC3)cc2)cc1 | 3.53% | 6.51 µM [falling, single point] | 0.13 µM [falling, full curve, poor fit]
7 | COC(=O)c1sccc1NC(=O)Nc1cc(C)cc(C)c1 | 39% | 29.1 µM [falling, single point] | 4.61 µM [rising, partial curve, poor fit]
8 | COc1ccc(N2CCN(C(=O)Cn3cnc4c3c(=O)n(C)c(=O)n4C)CC2)cc1 | -18.5% | 25.9 µM [falling, single point] | 0.146 µM [falling, full curve, poor fit]
9 | O=C(Cn1c(=O)n(CCC(=O)N2CCCCC2)c(=O)c2sccc21)NCc1ccccc1 | 22% | 0.103 µM [falling, full curve, poor fit] | –
10 | O=C(c1cc(-c2ccccc2)nc2ccccc12)N1CCN(c2ccccc2O)CC1 | -18.3% | 32.6 µM [falling, single point] | –
11 | COc1ccc(CNCc2cc3c(C(C)(C)C)nn(-c4ccccc4)c3[nH]c2=O)cc1 | -60.9% | – | 29.1 µM [falling, single point]
12 | COC(=O)c1sccc1NC(=S)N1CCN(c2ccccc2F)CC1 | -15.6% | 2.59 µM [falling, partial curve] | 0.164 µM [falling, full curve, poor fit]
13 | NS(=O)(=O)c1cccc(NC(=O)CN2CCN(Cc3ccc4c(c3)OCO4)CC2)c1 | – | 13 µM [rising, partial curve, poor fit] | –
14 | O=C(Nc1nnc(CCS(=O)(=O)c2ccc3ccccc3c2)s1)c1ccc([N+](=O)[O-])cc1 | 3.3% | 23.1 µM [falling, single point] | –
15 | CCN(C(=O)COC(=O)COc1ccc2c(c1)CCC2)c1c(N)n(Cc2ccccc2)c(=O)[nH]c1=O | 71.1% | – | 29.1 µM [rising, single point]
16 | CC1(C)CC(=O)C(Sc2ccccc2C(=O)O)=C(O)C1 | – | 0.731 µM [falling, single point] | –
17 | O=C(NCCO)c1cccc(S(=O)(=O)N2CCCCC2)c1 | 2.69% | 6.51 µM [falling, partial curve, poor fit] | –
18 | O=C1COc2ccc(C(=O)COC(=O)Cc3ccsc3)cc2N1 | -85% | – | 18.4 µM [falling, single point]
19 | CCc1cc(C(=O)N2CCN(C(=O)c3ccco3)CC2)sc1C | -24.5% | 5.8 µM [falling, partial curve, poor fit] | –
20 | Cc1ccc(C(=O)N/C(=C/c2ccccc2)C(=O)NC(Cc2ccccc2)C(=O)O)cc1 (centres undefined) | -9.23% | 11.6 µM [falling, partial curve] | –
21 | COCCN(C(=O)COC(=O)c1ccc2c(c1)OCCO2)c1c(N)n(Cc2ccccc2)c(=O)[nH]c1=O | -19.3% | – | –
22 | CCN1C(=O)[C@H]2[C@@H](c3ccc(-c4ccc(C(C)=O)cc4)cc3)N3CCCC[C@@]3(C(=O)OC)[C@H]2C1=O | – | 6.51 µM [falling, single point] | –
23 | COc1ccc(C2C3=C(CCCC3=O)Nc3nc(C(F)(F)F)nn32)cc1OC (centres undefined) | -38.1% | – | 5.8 µM [falling, full curve]
24 | Cc1cc(C)c2nc(N(CCN(C)C)C(=O)c3ccc(S(=O)(=O)N(C)CC4CCCO4)cc3)sc2c1 (centres undefined) | -56.5% | 14.6 µM [falling, partial curve] | 10.3 µM [falling, partial curve]
25 | COc1ccccc1N1CCN(C(=O)CSc2nc3ccccc3c(=O)n2CC2CCCO2)CC1 (centres undefined) | 3.94% | – | –
26 | C=CCn1c(=O)[nH]c2cc(C(=O)N3CCN(c4cccc(Cl)c4)CC3)ccc2c1=O | -35.5% | 18.4 µM [falling, partial curve, poor fit] | 20.6 µM [falling, partial curve, poor fit]
27 | O=C(N/N=C/c1cc2c(cc1[N+](=O)[O-])OCO2)c1cccnc1 | – | 0.00411 µM [rising, full curve, poor fit] | –

Copied from the list:
cell number change, COCCN(C(=O)COC(=O)c1ccc2c(c1)OCCO2)c1c(N)n(Cc2ccccc2)c(=O)[nH]c1=O is entered as -19.3%
AC50 [1], CC1(C)CC(=O)C(Sc2ccccc2C(=O)O)=C(O)C1 is entered as 0.731 µM [falling, single point]
cell number change, COc1ccc(N2CCN(C(=O)Cn3cnc4c3c(=O)n(C)c(=O)n4C)CC2)cc1 is entered as -18.5%
AC50 [1], O=C(NCCO)c1cccc(S(=O)(=O)N2CCCCC2)c1 is entered as 6.51 µM [falling, partial curve, poor fit]

Later entries:

Row | SMILES | cell number change | AC50 [1] | AC50 [2]
28 | Cn1c(=O)cc(OCCCC(=O)Nc2ccccn2)c2ccccc21 | – | 1.84 µM [falling, partial curve] | –
29 | CC1=C(C)/C(=N\OS(=O)(=O)c2ccccc2)C=CC1=O | -90.4% | 16.4 µM [falling, partial curve] | 3.26 µM [falling, full curve]
30 | O=C(CCCn1c(=O)[nH]c2cc(Cl)ccc2c1=O)NC1CCCCCC1 | 8.54% | 0.164 µM [falling, full curve, poor fit] | –
31 | O=C(COC(=O)c1ccc(O)cc1)NCCC1=CCCCC1 | -34.3% | – | 1.84 µM [rising, partial curve]
32 | CCSc1nc(C2CC2)cc(-c2ccco2)c1C#N | -29% | – | –
33 | CN(c1ccccc1)S(=O)(=O)c1cccc(NC(=O)CSc2nncs2)c1 | -24.9% | 16.4 µM [falling, single point] | –
34 | Cc1cc(C)c2nc(SCC(=O)Nc3cc(C)on3)c(C#N)cc2c1 | 19% | 29.1 µM [rising, single point] | –
35 | Cn1c(CNc2ccccc2O)nc2ccccc21 | -3.57% | 0.164 µM [falling, single point] | –
36 | COc1cc(NC(=S)NC(=O)c2c(OC)cccc2OC)ccc1NC(=O)c1cccs1 | -14.2% | – | 6.51 µM [falling, single point]
37 | O=C(O)CNS(=O)(=O)c1cccc(Cl)c1 | -8.37% | 5.17 µM [falling, full curve, poor fit] | –
38 | O=C(NCCCN1CCOCC1)c1ccc(-c2ccc(Cl)cc2)o1 | -45.1% | – | 25.9 µM [falling, partial curve, poor fit]
39 | Cc1onc(-c2ccccc2)c1C(=O)c1c[nH]c(C(=O)NCc2ccncc2)c1 | -52.5% | – | 29.1 µM [falling, single point]
40 | O=C(COC(=O)C1CC(=O)N(c2ccccc2)C1)c1ccccc1 (centres undefined) | -21.7% | 3.66 µM [falling, full curve, poor fit] | –
41 | CCN(CC)C(=O)CN(c1ccc(Cl)cc1)S(=O)(=O)c1ccccc1 | – | 29.1 µM [rising, single point] | –
42 | Cc1ccc(S(=O)(=O)N(C)c2c(C)ccc(S(=O)(=O)N3CCN(C=O)CC3)c2C)cc1 | 177% | – | 0.116 µM [rising, partial curve, poor fit]
43 | O=C(COC(=O)c1ccccc1NC(=O)c1ccco1)NCCC1=CCCCC1 | -4.37% | 2.06 µM [rising, full curve] | –
44 | COc1ccc(N2CCN(C(=O)c3ccc(Cn4nc(C)c([N+](=O)[O-])c4C)o3)CC2)cc1 | -32% | 11.6 µM [falling, single point] | 20.6 µM [falling, single point]
45 | Cc1[nH]nc2c1C(C(C)C)C(C#N)=C(N)O2 (centres undefined) | 38.6% | 29.1 µM [rising, single point] | 29.1 µM [rising, single point]
46 | CCC(=O)NC(c1cc(Cl)c2ccccc2c1O)C1CC1 (centres undefined) | -16.6% | 0.146 µM [rising, single point] | –
47 | Cc1oc(-c2cccc(F)c2)nc1CN1CCCCC1CCn1cccn1 (centres undefined) | 16.6% | 0.00461 µM [rising, full curve, poor fit] | –
48 | COc1ccc(NC(=O)C(c2ccccn2)N(C(C)=O)c2ccc(C)cc2)cc1 (centres undefined) | 19.9% | 14.6 µM [rising, partial curve, poor fit] | –
49 | Cc1ccccc1OCc1nnc(SCC(=O)O)n1Cc1ccccc1 | 27.5% | 0.00461 µM [rising, full curve, poor fit] | –
50 | COc1ccc(C(=O)/C=C/c2ccc(O)cc2)c(O)c1CC=C(C)C | -50% | – | 29.1 µM [falling, single point]
51 | CC1CC(=O)N(CC(=O)Nc2ccc(Br)cc2)c2ccccc2S1(=O)=O (centres undefined) | -20.2% | 29.1 µM [rising, partial curve] | –
52 | O=C(NCC(c1cccs1)N1CCOCC1)c1cn(-c2ccccc2)nc1-c1ccc(Cl)cc1 (centres undefined) | – | 5.17 µM [rising, full curve] | 6.51 µM [rising, single point]
53 | O=C(OCc1cc([N+](=O)[O-])cc2c1OCOC2)c1ccccn1 | -36.6% | 6.51 µM [falling, full curve] | 2.91 µM [falling, full curve]
54 | Cc1ccc(S(=O)(=O)Nc2cccc(Cl)c2)cc1NC(=O)c1cccnc1 | – | – | 2.59 µM [rising, single point]
